Drawing on patent US20120082680A1 (Merck Sharp & Dohme, published 2012), this text covers binding for five molecules.

Amino acid sequences for entries named in this document (tags omitted). Residues count along the entry.
UniProt Q8NBP7, residues 31-692: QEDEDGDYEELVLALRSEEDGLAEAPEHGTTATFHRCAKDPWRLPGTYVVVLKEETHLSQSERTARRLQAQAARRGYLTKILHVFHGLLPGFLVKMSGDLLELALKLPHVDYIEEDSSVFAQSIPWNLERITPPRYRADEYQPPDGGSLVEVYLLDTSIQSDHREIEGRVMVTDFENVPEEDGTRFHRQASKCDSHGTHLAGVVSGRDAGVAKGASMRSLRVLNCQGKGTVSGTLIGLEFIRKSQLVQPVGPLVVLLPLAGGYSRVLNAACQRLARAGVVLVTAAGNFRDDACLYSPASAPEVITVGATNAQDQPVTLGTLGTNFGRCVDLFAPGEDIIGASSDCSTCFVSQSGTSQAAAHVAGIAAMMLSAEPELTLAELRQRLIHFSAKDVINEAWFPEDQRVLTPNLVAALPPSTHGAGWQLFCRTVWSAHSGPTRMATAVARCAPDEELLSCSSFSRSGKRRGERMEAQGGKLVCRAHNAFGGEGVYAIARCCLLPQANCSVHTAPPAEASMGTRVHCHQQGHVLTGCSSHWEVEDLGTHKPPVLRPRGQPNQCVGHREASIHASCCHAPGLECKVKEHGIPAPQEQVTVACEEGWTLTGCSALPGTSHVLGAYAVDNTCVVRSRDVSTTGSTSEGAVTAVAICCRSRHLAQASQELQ

This test deals with V5-, His-tagged recombinant human PCSK9 protein (human) (UniProt Q8NBP7). As to the kind of experiment: ELISA on immobilized V5-, His-tagged PCSK9, HRP anti-Fab detection.

Changes are numbered by the printed parent chain. Results are given in words; binding and its absence hold for the method and conditions named. Some entries that bind do so weakly or less than the wild type.

B1: 3BX5C01 (Fab, V domains shown)
VH: QVQLVQSGAEVKKPGESLKISCKGSGYSFTSYGISWVRQMPGKGLEWMGMIDPSDSFTTYSPSFQGQVTISADKSISTAYLQWSSLKASDTAMYYCARGYYFTYALQPMDHWGQGTLVTVSS
VL: DIELTQPPSVSVAPGQTARISCSGDNLRDYIVHWYQQKPGQAPVLVIYDDSNRPSGIPERFSGSNSGNTATLTISGTQAEDEADYYCGFDNGGDIDVFGGGTKLTVLG
B1: the binding entry was “binds”.

B2: 3CX4B08 (Fab, V domains shown)
VH: QVQLVESGGGLVQPGGSLRLSCAASGFTFSNYTMNWVRQAPGKGLEWVSFISSSSSETYYADSVKGRFTISRDNSKNTLYLQMNSLRAEDTAVYYCARGYGDMVDLWGQGTLVTVSS
VL: DIELTQPPSVSVAPGQTARISCSGDSIPTYYVAWYQQKPGQAPVLVIYSDTDRPSGIPERFSGSNSGNTATLTISGTQAEDEADYYCQSFDNHGYHVFGGGTKLTVLG
Consider B2, for which the binding result is “binds”.

B3: 1CX1G08 (Fab, V domains shown)
VH: QVQLVESGGGLVQPGGSLRLSCAASGFTFSDYWVSWVRQAPGKGLEWVSFISYDGSSTYYADSVKGRFTISRDNSKNTLYLQMNSLRAEDTAVYYCARTYFEGVDVWGQGTLVTVSS
VL: DIELTQPPSVSVAPGQTARISCSGDNIGTYYVHWYQQKPGQAPVLVIYDDSNRPSGIPERFSGSNSGNTATLTISGTQAEDEADYYCGTWDNTSFNLVFGGGTKLTVLG
For the molecule B3, the binding entry is given as “binds”.

B4: 3CX2A06 (Fab, V domains shown)
VH: QVQLVQSGAEVKKPGESLKISCKGSGYSFSNFWIAWVRQMPGKGLEWMGIIDPSDSWTRYSPSFQGQVTISADKSISTAYLQWSSLKASDTAMYYCARGDGQDFDNWGQGTLVTVSS
VL: DIQMTQSPSSLSASVGDRVTITCRASQNINSYLNWYQQKPGKAPKLLIYAASSLQSGVPSRFSGSGSGTDFTLTISSLQPEDFAVYYCLQNYDLPNTFGQGTKVEIKR
In the case of B4, the binding result is on record as “binds”.

B5: 3CX3D02 (Fab, V domains shown)
VH: QVQLVQSGAEVKKPGESLKISCKGSGYSFTNSWIGWVRQMPGKGLEWMGIIYPSDSYTIYSPSFQGQVTISADKSISTAYLQWSSLKASDTAMYYCARGGGYYYALMDVWAQGTLVTVSS
VL: B4 VL with N28T, N30S, S31T, Y32W, V85T, N91D, Y92S, D93S, N96L
Take B5: the binding entry is reported as “binds”.
